System: HEK293 cells
Assay: Toxicity IC50 (cell-killing activity) of the NS1 TR-FRET screen
Type: cell-based, human

CN[C@H]1CCc2cc(OC)c(OC)c(OC)c2-c2ccc(OC)c(=O)cc21 [Demecolcine]
Tox IC50: No

— patent US10940188B2, “Compounds and methods for treatment and prevention of Flavivirus infection” (priority 2016, dated 2021)
